Consider six substances from patent US10988523B2 (Sanofi, priority 2018, dated 2021).

This data set can be described thus: general procedure: Fmoc solid-phase peptide synthesis; Rink amide AM resin (Rink Amide AM LL, NovaBiochem); DIC/HOAt. The conditions noted are these: whole synthesis, trifluoroacetate salt; for final HPLC purity: UV; for final HPLC purity / isolated yield: scale of the general procedure 0.1 to 0.2 mmol.

For the substance “Ac-L-E-G-R-E-K-V-R-A-K(Ac)-I-Aib-Aib-E-G-Nle-S-T-F-S-Mly-R-A-K(Ac)-PEG2-PEG2-PEG2-PEG2-K(gE-gE-gE-gE-Palm)-NH2”, the “final HPLC purity” value stood at 98%, the isolated yield is recorded as 14%, the crude mass came out at 600 mg and the isolated mass was found to be 135 mg.
“Ac-L-E-G-R-E-K-V-R-A-K(Ac)-I-Aib-Aib-E-G-Nle-S-T-W-S-Aib-R-K-K(Ac)-K(PEG2-PEG2-PEG2-gE-gE-gE-Palm)-NH2”: the “final HPLC purity” value worked out at 93%, the isolated yield was determined as 20%, the crude mass was 600 mg and the isolated mass was 144 mg.
Taken in the same sequence, the figures for “Ac-L-E-G-R-E-K-V-R-A-K(Ac)-I-Aib-Aib-E-G-Nle-S-T-W-S-Aib-R-K-K(Ac)-K(PEG2-PEG2-PEG2-gE-gE-gE-Stea)-NH2” were 93%, 20%, 600 mg and 185 mg.
As for “Ac-L-E-G-R-E-K-V-R-A-K(Ac)-I-Aib-Aib-E-G-Nle-S-T-W-S-Aib-R-K-K(Ac)-PEG12-K(gE-gE-gE-Stea)-NH2”, the “final HPLC purity” value was determined as 91%, the isolated yield stood at 10% and the isolated mass stood at 96 mg. Besides, where the note is “scale 0.2 mmol”, the crude mass was 645 mg.
Take “Ac-L-E-G-R-E-K-V-R-A-K(Ac)-I-Aib-Aib-E-G-Q-S-T-F-S-Mly-R-A-K(Ac)-PEG2-PEG2-PEG2-PEG2-K(gE-gE-gE-gE-Palm)-NH2”: the “final HPLC purity” value was found to be 98%, the isolated yield came to 16%, the crude mass is 600 mg and the isolated mass was 140 mg.
Taken in the same sequence, the figures for “Ac-L-E-G-R-E-K-V-R-A-Q-I-Aib-Aib-E-G-Nle-S-T-W-S-Aib-R-K-K(PEG2-PEG2-gE-gE-gE-Palm)-NH2” were 97%, 4%, 300 mg and 38 mg.
